Binding data for two molecules are collected here from article PMC2997466, “The unstructured C-terminal extension of UvrD interacts with UvrB, but is dispensable for nucleotide excision repair” (DNA Repair, 2009).

Holding throughout (test): two-hybrid; bacterial 2-hybrid (Dove and Hochschild) in E. coli KS1: UvrD fragments fused to RNA polymerase α 1–248, UvrB fragments fused to λ cI 1–236; chromosomal lacZ reporter, β-galactosidase in Miller Units; LB with 1 mM IPTG, 30 °C, mid-log phase
Test [1] concerns the target T1, λ cI-UvrB 527–673 (4) fusion protein (E. coli, UniProt P0A8F8 527-673).
T1 construct: UvrB, E. coli, residues 527-673 (domain 4); also called UvrB domain 4; source: bacterial two-hybrid fusion, pRA03 derivative, in E. coli KS1; not shown: λ cI residues 1–236, N-terminal, kept
T1 sequence (looked up): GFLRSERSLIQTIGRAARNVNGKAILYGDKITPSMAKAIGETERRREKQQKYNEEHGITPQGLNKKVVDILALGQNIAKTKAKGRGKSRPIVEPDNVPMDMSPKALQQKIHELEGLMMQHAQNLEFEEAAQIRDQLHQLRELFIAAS

In test [2] the target is T2, λ cI-UvrB 35–252 (1a2) fusion protein (E. coli, UniProt P0A8F8 35-252).
T2 construct: UvrB, E. coli, residues 35-252 (domains 1a and 2); also called UvrB fragment containing domains 1a and 2; source: bacterial two-hybrid fusion, pRA03 derivative, in E. coli KS1; not shown: λ cI residues 1–236, N-terminal, kept
T2 sequence (looked up): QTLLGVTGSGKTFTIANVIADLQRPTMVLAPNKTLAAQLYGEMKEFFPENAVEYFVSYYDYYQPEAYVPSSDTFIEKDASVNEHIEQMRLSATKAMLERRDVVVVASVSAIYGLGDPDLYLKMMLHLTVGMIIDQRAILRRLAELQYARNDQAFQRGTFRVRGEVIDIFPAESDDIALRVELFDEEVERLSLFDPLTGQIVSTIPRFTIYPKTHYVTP

The target of test [3] is T3, λ cI-UvrB 251–547 (1b3) fusion protein (E. coli, UniProt P0A8F8 251-547).
T3 construct: UvrB, E. coli, residues 251-547 (domains 1b and 3); also called UvrB domains 1b and 3; source: bacterial two-hybrid fusion, pRA03 derivative, in E. coli KS1; not shown: λ cI residues 1–236, N-terminal, kept
T3 sequence (looked up): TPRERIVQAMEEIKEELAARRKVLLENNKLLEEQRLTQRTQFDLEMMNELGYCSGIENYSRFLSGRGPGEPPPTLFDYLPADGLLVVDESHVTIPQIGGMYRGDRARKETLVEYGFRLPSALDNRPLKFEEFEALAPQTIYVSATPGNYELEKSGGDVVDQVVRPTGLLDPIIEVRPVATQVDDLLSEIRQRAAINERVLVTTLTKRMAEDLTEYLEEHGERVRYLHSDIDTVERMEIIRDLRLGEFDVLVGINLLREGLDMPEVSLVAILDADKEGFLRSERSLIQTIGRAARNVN

These are yes or no findings as the source states them, for the method shown. Where a sequence is shown, tags or fusion partners need not be part of it.

B1: α-UvrD 83–214 (1b) fusion protein (domain or fragment, UniProt P03018 83-214)
chain: GGMWVGTFHGLAHRLLRAHHMDANLPQDFQILDSEDQLRLLKRLIKAMNLDEKQWPPRQAMWYINSQKDEGLRPHHIQSYGNPVEQTWQKVYQAYQEACDRAGLVDFAELLLRAHELWLNKPHILQHYRERF
For B1, the binding entry in test [1], in test [2] and in test [3] was “no binding” in each case.

B2: α-UvrD 645–720 (C-extension) fusion protein (domain or fragment, E. coli, UniProt P03018 645-720, looked up)
chain: RLRATVSRPVSHQRMGTPMVENDSGYKLGQRVRHAKFGEGTIVNMEGSGEHSRLQVAFQGQGIKWLVAAYARLESV
notes: UvrD (helicase II), E. coli, residues 645-720 (unstructured C-terminal extension); also called C-terminal extension of UvrD (residues 645–720); source: bacterial two-hybrid fusion, pRA02 derivative, in E. coli KS1; not shown: RNA polymerase α subunit residues 1–248, N-terminal, kept
Regarding B2, the binding result in test [1] and in test [3] was “no binding” in each case.
